Our source for the binding values is paper doi:10.1101/665984.

These are yes or no findings as the source states them, for the method shown. A result given as binding can be weak or reduced; the word gives no strength. For some assays here: Where a sequence is shown, tags or fusion partners need not be part of it. For some assays here: In cells and extracts the contact can be indirect.

The target in assay [1] is >99% purified bovine tubulin (α/β-tubulin heterodimer) (bovine). As to the kind of experiment: co-purification with tubulin, immunoblot.
Assay [2] deals with GST-SET8 N-terminal portion (human). The experiment in a line: pull-down.

B1: SET8 present in the purified bovine tubulin preparation (enzyme, UniProt Q2YDJ8 1-352)
chain: MARGRKMSKPRAVEAAAAAAAVAATAPGPEMVERRGPGRPRTNGENVFTGQSKIYTYMSPNKCSGMRSPLQEENSVAQYEVKCQGKPLAGIYRKRDEKRNSGNAIRSSMKAEEQKIKDARRGPLAPFPNQKSEAAEPPKTPTSSCDTPNAAAAKQGLKKPVRGKQAPRKKAQGKTQQNRKLTDFYPVRRSSRKSKAELQSEERKRIDELIESGKEEGMKIDLIDGKGRGVIATKQFSRGEFVVEYHGDLIEITDAKKREALYAQDPSTGCYMYYFQYLSKTYCVDATRETNRLGRLINHSKCGNCQTKLHDIDGVPHLILIASRDIEAGEELLYDYGDRSRASIEAYPWLKH
For the molecule B1, the binding entry in assay [1] is reported as “binds”.

B2: His-tagged LSF (protein, UniProt Q12800 1-502)
chain: MAWALKLPLADEVIESGLVQDFDASLSGIGQELGAGAYSMSDVLALPIFKQEESSLPPDNENKILPFQYVLCAATSPAVKLHDETLTYLNQGQSYEIRMLDNRKLGELPEINGKLVKSIFRVVFHDRRLQYTEHQQLEGWRWNRPGDRILDIDIPMSVGIIDPRANPTQLNTVEFLWDPAKRTSVFIQVHCISTEFTMRKHGGEKGVPFRVQIDTFKENENGEYTEHLHSASCQIKVFKPKGADRKQKTDREKMEKRTPHEKEKYQPSYETTILTECSPWPEITYVNNSPSPGFNSSHSSFSLGEGNGSPNHQPEPPPPVTDNLLPTTTPQEAQQWLHRNRFSTFTRLFTNFSGADLLKLTRDDVIQICGPADGIRLFNALKGRMVRPRLTIYVCQESLQLREQQQQQQQQQQKHEDGDSNGTFFVYHAIYLEELTAVELTEKIAQLFSISPCQISQIYKQGPTGIHVLISDEMIQNFQEEACFILDTMKAETNDSYHIILK
Consider B2, for which, in assay [2], the binding result is recorded as “binds”.
